Experimental data from patent US20190041402A1 (GOVERNING COUNCIL OF THE UNIVERSITY OF TORONTO, published 2019).
These are yes or no findings as the source states them, for the method shown. In cells and extracts the contact can be indirect. Some binding calls cover weakened binding; strength is not graded here. For some of these results: Sequences can lack the tags named with a protein.

Legend:
[1] = molecular target: T1, mouse αKlotho (endogenous or transgenic, serum, urine and kidney lysate) (mouse) (UniProt O35082); experiment: immunoprecipitation (pull-down) from serum and urine
T1 sequence (looked up): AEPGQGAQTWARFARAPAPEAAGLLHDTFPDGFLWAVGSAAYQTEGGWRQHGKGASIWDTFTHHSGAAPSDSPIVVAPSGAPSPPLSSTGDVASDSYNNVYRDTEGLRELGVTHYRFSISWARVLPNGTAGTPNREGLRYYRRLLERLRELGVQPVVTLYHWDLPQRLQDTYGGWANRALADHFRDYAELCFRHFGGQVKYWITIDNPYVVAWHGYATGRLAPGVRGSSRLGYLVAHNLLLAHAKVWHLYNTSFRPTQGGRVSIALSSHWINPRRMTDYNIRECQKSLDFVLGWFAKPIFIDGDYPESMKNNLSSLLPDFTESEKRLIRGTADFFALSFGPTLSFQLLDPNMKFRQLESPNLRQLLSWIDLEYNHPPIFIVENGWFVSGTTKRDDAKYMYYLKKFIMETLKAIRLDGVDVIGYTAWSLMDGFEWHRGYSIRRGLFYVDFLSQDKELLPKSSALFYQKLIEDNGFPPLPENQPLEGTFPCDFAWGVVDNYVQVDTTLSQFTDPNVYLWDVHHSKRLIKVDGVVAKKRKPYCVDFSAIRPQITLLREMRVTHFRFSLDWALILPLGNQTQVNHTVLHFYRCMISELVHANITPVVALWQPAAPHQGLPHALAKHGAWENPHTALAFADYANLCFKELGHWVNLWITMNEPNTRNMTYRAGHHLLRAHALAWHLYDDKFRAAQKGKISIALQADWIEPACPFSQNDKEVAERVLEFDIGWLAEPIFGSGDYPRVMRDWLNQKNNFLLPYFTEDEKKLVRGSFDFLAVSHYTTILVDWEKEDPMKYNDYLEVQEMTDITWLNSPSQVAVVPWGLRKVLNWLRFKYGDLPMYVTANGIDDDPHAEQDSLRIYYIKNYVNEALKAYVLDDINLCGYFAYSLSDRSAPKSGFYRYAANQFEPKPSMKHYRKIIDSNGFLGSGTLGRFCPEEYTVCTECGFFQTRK

[2] = molecular target: T2, human soluble αKlotho (endogenous, serum and urine) (human) (UniProt Q9UEF7); experiment: as above
T2 sequence (looked up): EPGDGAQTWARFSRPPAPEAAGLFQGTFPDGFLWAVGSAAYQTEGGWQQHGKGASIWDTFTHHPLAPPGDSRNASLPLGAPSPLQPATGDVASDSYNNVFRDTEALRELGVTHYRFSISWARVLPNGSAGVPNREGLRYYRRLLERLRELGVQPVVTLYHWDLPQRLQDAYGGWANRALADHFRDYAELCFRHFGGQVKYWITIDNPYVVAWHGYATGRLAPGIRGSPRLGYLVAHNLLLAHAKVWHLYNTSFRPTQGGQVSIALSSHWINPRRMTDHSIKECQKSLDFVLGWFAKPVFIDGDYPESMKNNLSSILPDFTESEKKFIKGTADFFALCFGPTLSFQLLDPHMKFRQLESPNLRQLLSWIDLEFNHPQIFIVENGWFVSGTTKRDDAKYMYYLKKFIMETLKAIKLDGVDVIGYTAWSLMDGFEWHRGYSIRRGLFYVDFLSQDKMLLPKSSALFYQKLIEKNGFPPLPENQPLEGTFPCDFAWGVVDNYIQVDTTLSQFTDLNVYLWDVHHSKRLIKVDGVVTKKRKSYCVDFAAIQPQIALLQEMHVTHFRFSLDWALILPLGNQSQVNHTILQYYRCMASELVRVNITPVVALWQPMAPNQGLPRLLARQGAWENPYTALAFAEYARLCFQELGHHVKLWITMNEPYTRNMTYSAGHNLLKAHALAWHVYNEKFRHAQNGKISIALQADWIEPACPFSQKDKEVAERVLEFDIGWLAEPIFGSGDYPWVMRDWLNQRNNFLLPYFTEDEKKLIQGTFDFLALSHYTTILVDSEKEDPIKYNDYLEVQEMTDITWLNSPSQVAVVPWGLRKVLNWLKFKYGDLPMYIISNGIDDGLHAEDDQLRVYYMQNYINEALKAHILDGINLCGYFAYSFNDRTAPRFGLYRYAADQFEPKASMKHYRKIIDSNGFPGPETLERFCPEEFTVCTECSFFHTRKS

[3] = molecular target: T3, extracellular domain of murine αKlotho with C-terminal FLAG tag, secreted by HEK293 cells (mouse) (UniProt O35082); experiment: immunoprecipitation (pull-down) from culture medium
T3 sequence (looked up): T1 sequence (looked up)

[4] = molecular target: T4, full-length transmembrane murine αKlotho expressed in HEK293 cells (mouse) (UniProt O35082); experiment: immunoprecipitation (pull-down) from cell lysate
T4 sequence (looked up): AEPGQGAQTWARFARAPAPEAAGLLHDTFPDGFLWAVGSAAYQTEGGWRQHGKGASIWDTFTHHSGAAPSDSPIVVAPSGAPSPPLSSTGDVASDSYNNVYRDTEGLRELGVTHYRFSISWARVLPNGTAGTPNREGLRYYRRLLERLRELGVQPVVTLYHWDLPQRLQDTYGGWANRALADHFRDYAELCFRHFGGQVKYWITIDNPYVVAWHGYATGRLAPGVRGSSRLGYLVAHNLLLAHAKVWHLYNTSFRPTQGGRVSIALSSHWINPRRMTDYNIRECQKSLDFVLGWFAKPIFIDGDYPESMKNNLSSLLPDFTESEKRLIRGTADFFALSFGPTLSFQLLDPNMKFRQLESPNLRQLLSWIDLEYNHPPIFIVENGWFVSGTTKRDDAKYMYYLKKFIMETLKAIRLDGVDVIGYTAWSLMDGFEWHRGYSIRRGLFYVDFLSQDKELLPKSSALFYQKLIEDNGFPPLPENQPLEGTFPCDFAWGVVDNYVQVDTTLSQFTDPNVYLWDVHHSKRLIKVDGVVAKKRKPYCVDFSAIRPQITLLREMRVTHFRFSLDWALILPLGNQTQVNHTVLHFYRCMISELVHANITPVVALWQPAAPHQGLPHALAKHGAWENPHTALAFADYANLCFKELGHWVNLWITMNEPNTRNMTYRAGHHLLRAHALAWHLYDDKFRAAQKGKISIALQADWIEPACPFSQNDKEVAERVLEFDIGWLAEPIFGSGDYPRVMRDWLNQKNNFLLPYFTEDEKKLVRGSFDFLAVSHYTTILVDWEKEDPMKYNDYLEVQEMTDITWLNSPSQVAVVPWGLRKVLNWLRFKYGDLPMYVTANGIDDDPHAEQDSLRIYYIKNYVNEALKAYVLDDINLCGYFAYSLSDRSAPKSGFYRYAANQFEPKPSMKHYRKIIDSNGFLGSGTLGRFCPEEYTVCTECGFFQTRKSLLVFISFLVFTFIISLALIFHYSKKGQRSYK

Measured: binding

B1: sb106 IgG (antibody, V domains shown)
VH: EVQLVESGGGLVQPGGSLRLSCAASGFNISYYSIHWVRQAPGKGLEWVAYISPSYGYTSYADSVKGRFTISADTSKNTAYLQMNSLRAEDTAVYYCARYYVYASHGWAGYGMDYWGQGTLVTVSS
VL: DIQMTQSPSSLSASVGDRVTITCRASQSVSSAVAWYQQKPGKAPKLLIYSASSLYSGVPSRFSGSRSGTDFTLTISSLQPEDFATYYCQQAGYSPITFGQGTKVEIKR
notes: also called sb106 (48) full length IgG
binds: all assays above
